Laboratory results: PubChem BioAssay AID1159584 (Peter MacCallum Cancer Centre, 2016)
Purpose: 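Genes that CDH1-null MCF10A cells selectively depend on to survive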 (primary screen). Cells: human MCF10A breast epithelial cells, parental and CDH1-null. Knock-down reagent: siRNA against human genes. Measurement: 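Cell viability by CellTiter-Glo ATP luminescence, each line scaled to the mean of mock wells across plates, then CDH1-null over parental ratio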. Scale: CDH1-null / parental viability ratio: higher = CDH1-null cells survive relatively better than parental.
The whole screen tested about 18,000 reagents; this is a part drawn at random. Further read-outs or replicates are left out here. Not given: the amount of reagent, the time to read-out.

How did the screen score PLXNC1?
CDH1-null / parental viability ratio: 1.22

What did the screen give for NUDT8?
CDH1-null / parental viability ratio: 1.18

For TNFRSF21, how do the results read?
CDH1-null / parental viability ratio: 1.16

With HIPK4, what was measured?
CDH1-null / parental viability ratio: 0.98

How did the screen score TACR1?
CDH1-null / parental viability ratio: 0.8

For TRAPPC14, how do the results read?
CDH1-null / parental viability ratio: 0.69

Which result is listed for HOXB8?
CDH1-null / parental viability ratio: 0.88

What did the screen give for DIP2B?
CDH1-null / parental viability ratio: 0.8

How did the screen score FLAD1?
CDH1-null / parental viability ratio: 1.08

Which result is listed for PNP?
CDH1-null / parental viability ratio: 1

For PLEKHM1, how do the results read?
CDH1-null / parental viability ratio: 1.24

What did the screen give for ZDHHC21?
CDH1-null / parental viability ratio: 0.92

For GPHN, what was measured?
CDH1-null / parental viability ratio: 0.85

What is on record for RPL26?
CDH1-null / parental viability ratio: 1.27

What is on record for PCSK5?
CDH1-null / parental viability ratio: 1.3

For CDHR3, what was measured?
CDH1-null / parental viability ratio: 0.9

With TCEAL6, how do the results read?
CDH1-null / parental viability ratio: 1.15

For MSANTD2, how do the results read?
CDH1-null / parental viability ratio: 0.81

For FHIP2A, what was measured?
CDH1-null / parental viability ratio: 0.7

With IRGQ, what does the deposit list?
CDH1-null / parental viability ratio: 1.25

For CENPE, how do the results read?
CDH1-null / parental viability ratio: 1.04

For CRACDL, what does the deposit list?
CDH1-null / parental viability ratio: 0.9

For PPY, how do the results read?
CDH1-null / parental viability ratio: 0.73

For XPNPEP2, how do the results read?
CDH1-null / parental viability ratio: 1.02

How did the screen score IFT38?
CDH1-null / parental viability ratio: 0.56

With EPHX2, what was measured?
CDH1-null / parental viability ratio: 1.05

For NDUFB7, how do the results read?
CDH1-null / parental viability ratio: 0.68

For MMP24, what was measured?
CDH1-null / parental viability ratio: 1.2

What did the screen give for SDR9C7?
CDH1-null / parental viability ratio: 0.82

For AOC3, what does the deposit list?
CDH1-null / parental viability ratio: 0.9

For HLCS, what was measured?
CDH1-null / parental viability ratio: 0.99

What did the screen give for NOAZFP?
CDH1-null / parental viability ratio: 1.09

With CHCHD2, what does the deposit list?
CDH1-null / parental viability ratio: 0.72

With COX19, how do the results read?
CDH1-null / parental viability ratio: 0.68

Which result is listed for ABHD4?
CDH1-null / parental viability ratio: 1.24
